PubChem BioAssay AID1159593, NIAID – 2016
Shown is an unselected part of 756 reagents tested. 137 of all reagents (18%) were called active. 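Active means p65 translocation went either up or down; genes were judged on the median of six siRNAs, not single siRNAs.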 The numbers tell different reagents against one gene apart. Not given: the amount of reagent.

Purpose: 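Knock-downs that alter LPS-induced nuclear entry of p65 in mouse macrophages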
Cells: RAW264.7 macrophages of mouse, with reporters for p65 (GFP) and the Tnf promoter (mCherry)
Knock-down reagent: single siRNA against mouse genes
Timing: 48 to 72 hours after siRNA transfection, then LPS for 40 min
Challenge: LPS (Salmonella minnesota R595) for 40 min before fixation; dose not given
Measured: 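High-content imaging of GFP-p65 moving into nuclei after 40 min LPS, plate median/MAD normalised, replicate mean of robust z-score relative to negative controls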
Reading the numbers: p65 translocation z-score: higher = more nuclear NF-kappaB p65 after LPS
Rule for the call: 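Activity score grows with absolute z: 25 beyond 1, 50 beyond 1.5, 75 beyond 2, 100 beyond 2.5; active calls here sit at about z 1.5 or more either way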
Calls: active = changed p65 translocation (either direction); inactive = no clear change

Nfkbia #1 → p65 translocation z-score = -1.73; Outcome = active
Nfkbia #2 → p65 translocation z-score = -2.87; Outcome = active
Nfkbia #3 → p65 translocation z-score = -1.05; Outcome = inactive
Nfkbia #4 → p65 translocation z-score = -0.867; Outcome = inactive
Nfkbia #5 → p65 translocation z-score = -1.71; Outcome = active
Nfkbia #6 → p65 translocation z-score = 0.274; Outcome = inactive
Tbkbp1 #1 → p65 translocation z-score = 0.238; Outcome = inactive
Tbkbp1 #2 → p65 translocation z-score = -0.599; Outcome = inactive
Tbkbp1 #3 → p65 translocation z-score = 0.972; Outcome = inactive
Tbkbp1 #4 → p65 translocation z-score = -0.305; Outcome = inactive
Tbkbp1 #5 → p65 translocation z-score = 1.27; Outcome = inactive
Tbkbp1 #6 → p65 translocation z-score = 0.32; Outcome = inactive

Ordered by “p65 translocation z-score” (ascending): some entries from above.
Tbkbp1 #6 → p65 translocation z-score = 0.32; Outcome = inactive
Tbkbp1 #5 → p65 translocation z-score = 1.27; Outcome = inactive

Continued:
Ccl3 #1 → p65 translocation z-score = -1.83; Outcome = active
Ccl3 #2 → p65 translocation z-score = -0.214; Outcome = inactive
Ccl3 #3 → p65 translocation z-score = -0.653; Outcome = inactive
Ccl3 #4 → p65 translocation z-score = 0.107; Outcome = inactive
Ccl3 #5 → p65 translocation z-score = -0.323; Outcome = inactive
Ccl3 #6 → p65 translocation z-score = 4.74; Outcome = active
Tab2 #1 → p65 translocation z-score = -0.55; Outcome = inactive
Tab2 #2 → p65 translocation z-score = -1.04; Outcome = inactive
Tab2 #3 → p65 translocation z-score = 0.241; Outcome = inactive
Tab2 #4 → p65 translocation z-score = 0.947; Outcome = inactive
Tab2 #5 → p65 translocation z-score = 0.797; Outcome = inactive
Tab2 #6 → p65 translocation z-score = -0.354; Outcome = inactive
